Results from the supplement of paper PMC6445147.
Values scatter widely in this assay.

B1: human tRNA-Pro; a variant is named by its letters at N, in order (parent)
chain: GGCTCGTTGGTCTAGNGGTATGATTCTCGCTTAGGGTGCGAGAGGTCCCGGGTTCNNATCCCGGACGAGCCC

How the values were obtained:
[1] = variants of: B1; test: tRNA Pol-III promoter activity, log2 (circRNA frequency / plasmid DNA frequency) (log2 ratio); higher = stronger promoter activity; details: HEK293T; construct: no Pol-II promoter ((-)CMV library)
[2] = variants of: B1; test: tRNA 3' processing efficiency (processed reads / all reads, maximum-likelihood estimate) (fraction); higher = more efficient 3' processing; details: HEK293T; construct: no Pol-II promoter ((-)CMV library)

Row | Variant | tRNA Pol-III promoter activity (log2) [1] | tRNA 3' processing efficiency [2]
1 | GGCTCGTTGGTCTCCGGGTATGATTCTCGCTTAGGGTGCGAGAGGTCCCGGGTTCAAACCCCGGACGAGCCC | 3.93 | 0.2
2 | GGCTCGTTGGTCTCGGGATATGATTCTCGCTTAGGGTGCGAGAGGTCCCGGGTTTAAATCCCGGACGAGCCC | 3.71 | 0.17
3 | GGCTCGTTGGTCTCGGGATATGATTCTCGCTTAGGGTGCGAGAGGTCCCGGGTTGAAATCCCGGACGAGCCC | 5.93 | 0.67
4 | GGCTCGTTGGTCTCCGGGTATGATTCTCGCTTAGGGTGCGAGAGGTCCCGGGATCAAATCCCGGACGAGCCC | 4.84 | 0.14
5 | GGCTCGTTGGTCTCCGGGTATGATTCTCGCTTAGGGTGCGAGAGGTCCCGGGATCAATTCCCGGACGAGCCC | 5.62 | 0.17
6 | GGCTCGTTGGTCTCGGGGTATGATTCTCGCTTAGGGTGCGAGAGGTCCCGGGCTCAAGTCCCGGACGAGCCC | 5.03 | 0.17
7 | GGCTCGTTGGTCTCGGGTCATGATTCTCGCTTAGGGTGCGAGAGGTCCCGGGTTCAAATCCCGGACGAGCCC | 3.36 | 0.25
8 | GGCTCGTTGGTCTCGCGGGATGATTCTCGCTTAGGGTGCGAGAGGTCCCGGGTTCAAATCCCGGACGAGCCC | 5.45 | 0.13
9 | GGCTCGTTGGTCTCGGGGCATGATTCTCGCTTAGGGTGCGAGAGGTCCCGGGTTCAATTCCCGGACGAGCCC | 4.45 | 0.25
10 | GGCTCGTTGGTCTCGTGGGATGATTCTCGCTTAGGGTGCGAGAGGTCCCGGGTTCAAAGCCCGGACGAGCCC | 8.11 | 0.17
11 | GGCTCGTTGGTCTCGGGCTATGATTCTCGCTTAGGGTGCGAGAGGTCCCGGGTTCAAATCCCGGACGAGCCC | 0.228 | 0.86
12 | GGCTCGTTGGTCTCGGGATATGATTCTCGCTTAGGGTGCGAGAGGTCCCGGGTTCAAATCCCGGACGAGCCC | 0.798 | 0.3
13 | GGCTCGTTGGTCTCCGGGTTTGATTCTCGCTTAGGGTGCGAGAGGTCCCGGGTTCAAATCCCGGACGAGCCC | 5.53 | 0.67
14 | GGCTCGTTGGTCTCGGGCTATGATTCTCGCTTAGGGTGCGAGAGGTCCCGGGTTCAAGTCCCGGACGAGCCC | 3.93 | 0.73
15 | GGCTCGTTGGTCTCTGGATATGATTCTCGCTTAGGGTGCGAGAGGTCCCGGGTACAAATCCCGGACGAGCCC | 2.72 | 0.67
16 | GGCTCGTTGGTCTCGGGGTATGATTCTCGCTTAGGGTGCGAGAGGTCCCGGGATCAAATCCCGGACGAGCCC | 1.5 | 0.31
17 | GGCTCGTTGGTCTCGGGGTATGATTCTCGCTTAGGGTGCGAGAGGTCCCGGGGTCAAATCCCGGACGAGCCC | 2.33 | 0.67
18 | GGCTCGTTGGTCTCGGGGTATGATTCTCGCTTAGGGTGCGAGAGGTCCCGGGCTCAAATCCCGGACGAGCCC | 2.25 | 0.63
19 | GGCTCGTTGGTCTCGGGGTATGATTCTCGCTTAGGGTGCGAGAGGTCCCGGGATCAAGTCCCGGACGAGCCC | 3.94 | 0.57

Row | Variant | tRNA Pol-III promoter activity (log2) [1] | tRNA 3' processing efficiency [2]
20 | GGCTCGTTGGTCTCGGGGTATGATTCTCGCTTAGGGTGCGAGAGGTCCCGGGATCAATTCCCGGACGAGCCC | 3.45 | 0.17
21 | GGCTCGTTGGTCTCTGGATATGATTCTCGCTTAGGGTGCGAGAGGTCCCGGGTTCAATTCCCGGACGAGCCC | 6.75 | 0.57
22 | GGCTCGTTGGTCTCGGGGTATGATTCTCGCTTAGGGTGCGAGAGGTCCCGGGCCCAAATCCCGGACGAGCCC | 4.46 | 0.7
23 | GGCTCGTTGGTCTCGTGGTATGATTCTCGCTTAGGGTGCGAGAGGTCCCGGGATCAAATCCCGGACGAGCCC | 4.77 | 0.38
24 | GGCTCGTTGGTCTCGGGGTATGATTCTCGCTTAGGGTGCGAGAGGTCCCGGGATCAAAACCCGGACGAGCCC | 2.94 | 0.25
25 | GGCTCGTTGGTCTCGGGTTATGATTCTCGCTTAGGGTGCGAGAGGTCCCGGGTTCAAACCCCGGACGAGCCC | 5.63 | 0.69
26 | GGCTCGTTGGTCTCGGGATATGATTCTCGCTTAGGGTGCGAGAGGTCCCGGGTTCAAGTCCCGGACGAGCCC | 4.43 | 0.29
27 | GGCTCGTTGGTCTCGGGATATGATTCTCGCTTAGGGTGCGAGAGGTCCCGGGTTCAATTCCCGGACGAGCCC | 4.03 | 0.14
28 | GGCTCGTTGGTCTCGTGGGATGATTCTCGCTTAGGGTGCGAGAGGTCCCGGGTTCAAATCCCGGACGAGCCC | 4.62 | 0.5
29 | GGCTCGTTGGTCTCGGGTTATGATTCTCGCTTAGGGTGCGAGAGGTCCCGGGTTTAAATCCCGGACGAGCCC | 3.18 | 0.22
30 | GGCTCGTTGGTCTCGGGATATGATTCTCGCTTAGGGTGCGAGAGGTCCCGGGTTCAAAACCCGGACGAGCCC | 7.53 | 0.25
31 | GGCTCGTTGGTCTCGGGGACTGATTCTCGCTTAGGGTGCGAGAGGTCCCGGGTTCAAAACCCGGACGAGCCC | 2.94 | 0.5
32 | GGCTCGTTGGTCTCGGGTTATGATTCTCGCTTAGGGTGCGAGAGGTCCCGGGTACAAATCCCGGACGAGCCC | 6.75 | 0.57
33 | GGCTCGTTGGTCTCGGGATCTGATTCTCGCTTAGGGTGCGAGAGGTCCCGGGTTCAAATCCCGGACGAGCCC | 4.51 | 0.33
34 | GGCTCGTTGGTCTCGGGATGTGATTCTCGCTTAGGGTGCGAGAGGTCCCGGGTTCAAATCCCGGACGAGCCC | 3.93 | 0.29
35 | GGCTCGTTGGTCTCGGGACATGATTCTCGCTTAGGGTGCGAGAGGTCCCGGGTTCAAATCCCGGACGAGCCC | 4.69 | 0.23
36 | GGCTCGTTGGTCTCGGGTTATGATTCTCGCTTAGGGTGCGAGAGGTCCCGGGTTCAATTCCCGGACGAGCCC | 0.813 | 0.25
37 | GGCTCGTTGGTCTCGGGGAATGATTCTCGCTTAGGGTGCGAGAGGTCCCGGGTTCAAATCCCGGACGAGCCC | 2.25 | 0.17
38 | GGCTCGTTGGTCTCGGGGCATGATTCTCGCTTAGGGTGCGAGAGGTCCCGGGTTCAAATCCCGGACGAGCCC | 3.54 | 0.42

Single values from the entries so far:
For tRNA Pol-III promoter activity (log2) [1], GGCTCGTTGGTCTCGGGGTATGATTCTCGCTTAGGGTGCGAGAGGTCCCGGGATCAATTCCCGGACGAGCCC has 3.45
For tRNA Pol-III promoter activity (log2) [1], GGCTCGTTGGTCTCGTGGTATGATTCTCGCTTAGGGTGCGAGAGGTCCCGGGATCAAATCCCGGACGAGCCC has 4.77
